According to paper PMC7819943, “Rice protein-binding microarrays: a tool to detect cis-acting elements near promoter regions in rice”:
This is one part of the list.

The chains behind the UniProt entries cited, without tags or fusion partners.
UniProt Q0JBA9, entry or part of it: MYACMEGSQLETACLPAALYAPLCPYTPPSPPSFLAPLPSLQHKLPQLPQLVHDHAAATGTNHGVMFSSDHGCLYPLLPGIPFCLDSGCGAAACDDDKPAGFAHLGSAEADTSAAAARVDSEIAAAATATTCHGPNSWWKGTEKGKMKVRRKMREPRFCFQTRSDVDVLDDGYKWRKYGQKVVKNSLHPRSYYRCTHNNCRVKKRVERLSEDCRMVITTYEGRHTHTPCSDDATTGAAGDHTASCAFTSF

target: OsWRKY34 (Oryza sativa, UniProt Q0JBA9 1-250); experiment: protein-binding microarray (RPBM); PBS, 2% BSA, 51.3 ng/ul salmon testes DNA, 50 uM zinc acetate, 200 nM TF, 25 C, 1 h; high values mean tight binding; settings: protein: recombinant; tags: N-terminal polyhistidine and DsRed monomer fusion (pET32a); label: CyDye5-dUTP incorporated in the synthesized complementary strand; 3' TTTTT single-stranded linker to array surface; dsDNA, one strand shown
Outline: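 A custom Agilent array was converted to double-stranded form by primer extension with Cy5-dUTP and blocked with 2% BSA. Protein at 200 nM in PBS with 2% BSA, salmon testes DNA and 50 µM zinc acetate was applied for 1 h at 25 °C, followed by washing. The proteins were polyhistidine–DsRed N-terminal fusions of transcription factors, expressed in E. coli BL21-CodonPlus and Ni–NTA-purified. The binding signal is per-feature fluorescence intensity (arbitrary units) from an Axon 4000B scanner.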

| Sequence | binding signal |
| --- | --- |
| GGATGGAGGGTGCATATGAGACAACAACATTTAGCTCTCTCGGAGTCACCTAGTGCAG | 8460 fluorescence intensity (a.u.) |
| CTGCTGCTTCTTGGGAAATTTGTGGACAAATCATTCGGGGCGGAGTCACCTAGTGCAG | 8440 fluorescence intensity (a.u.) |
| AGGGTTTTGGTCAAGTTAGAGAGGCTATTGGAGGACGTTTCGGAGTCACCTAGTGCAG | 8100 fluorescence intensity (a.u.) |
| TGCCTCTCAACTTTGGTCACATGCTTTGAATTCCAACTCACGGAGTCACCTAGTGCAG | 12500 fluorescence intensity (a.u.) |
| CGGTTCGCGCTGTTTTTCCTACGACACGCTCCAGTCAGGTCGGAGTCACCTAGTGCAG | 8430 fluorescence intensity (a.u.) |
| TTTTCGCCGTAATATAGCTCTCTTGTACTACTGACGTGCCCGGAGTCACCTAGTGCAG | 9510 fluorescence intensity (a.u.) |
| TGCTTTTTTTGGATTCCGCTTGCGCGGTTGCAGGTGGTGCCGGAGTCACCTAGTGCAG | 8370 fluorescence intensity (a.u.) |
| TTCACTTGCCACATCATTTTTTGTCCTAAGTGACAACTTACGGAGTCACCTAGTGCAG | 10100 fluorescence intensity (a.u.) |
| GAGATCTTCGGTGTACTTTTTCTTATTTAGGCGTCACGTACGGAGTCACCTAGTGCAG | 10300 fluorescence intensity (a.u.) |
| ACCTCAACTTCTCATTCAATCACAACTCTCATCTATTTAACGGAGTCACCTAGTGCAG | 8640 fluorescence intensity (a.u.) |
| ACTTCCGAAACCACCAGGGTAGTAGATTTGCAACAATTTTCGGAGTCACCTAGTGCAG | 8160 fluorescence intensity (a.u.) |
| ATCAACCAGTAATCAATTGACCAAGCGGTTCTTGCGCCTACGGAGTCACCTAGTGCAG | 9780 fluorescence intensity (a.u.) |
| TCCGCTACTCTGTCCGCGGCCTGCTCGCGCTCCACTGCTCCGGAGTCACCTAGTGCAG | 11600 fluorescence intensity (a.u.) |
| AGTTATGTTTTTGATTTTCCGATATTTATGATCCTGTTACCGGAGTCACCTAGTGCAG | 8570 fluorescence intensity (a.u.) |
| GTCAGCGTGTCACGCGCCCACACCCACCCACGCACACCGACGGAGTCACCTAGTGCAG | 8060 fluorescence intensity (a.u.) |
| TTCTACTAAGTCTGTTTCTAATCCTGTACTAACTGTCGACCGGAGTCACCTAGTGCAG | 8750 fluorescence intensity (a.u.) |
| CACTTACATGGCACATCACTCCAGCTTTACCAGCATCATTCGGAGTCACCTAGTGCAG | 15600 fluorescence intensity (a.u.) |
| CATCTCTCGTTCTCTTTTTTCATTCTTGGAAATCTGCACCCGGAGTCACCTAGTGCAG | 8150 fluorescence intensity (a.u.) |
| CGGCGAGGCAGCTGGTTGTTTGTTGTTGGTTCCCTCTCCACGGAGTCACCTAGTGCAG | 8280 fluorescence intensity (a.u.) |
| TTTCTTTTGCATTTTCCCTGTTCCATATCGTTTTTTTCTCCGGAGTCACCTAGTGCAG | 8560 fluorescence intensity (a.u.) |
| ACTAGATCCTCAAGTCCATGATATACCAGGTTTGTCCTTCCGGAGTCACCTAGTGCAG | 8090 fluorescence intensity (a.u.) |

| Sequence | binding signal |
| --- | --- |
| AACATATTTAAAAAAGTCAACGGTGCCAAATATTTTGGAACGGAGTCACCTAGTGCAG | 13800 fluorescence intensity (a.u.) |
| AATACTCCGTTTTACACCTATATTCTTACTTTATTATTATCGGAGTCACCTAGTGCAG | 9330 fluorescence intensity (a.u.) |
| GGTTTTTTTCCCGCTTATCCCACTTCTAGTCTATCTTTTTCGGAGTCACCTAGTGCAG | 19300 fluorescence intensity (a.u.) |
| CAAACCAAACGCCAATTAATGGCTTGACCAACCACCGCGCCGGAGTCACCTAGTGCAG | 8500 fluorescence intensity (a.u.) |
| CGCCGCCATGGGAGCCGACCTGGACTTCTCGCCGCCGCCGCGGAGTCACCTAGTGCAG | 8120 fluorescence intensity (a.u.) |
| GCCTCCACATCCCTCTGCCCATCTCGATCCCCGCCGCGCCCGGAGTCACCTAGTGCAG | 9630 fluorescence intensity (a.u.) |
| ACTTTCTAGCATTGCCCACATTCTTTTATATATATATATACGGAGTCACCTAGTGCAG | 12500 fluorescence intensity (a.u.) |
| CTTCGTTTTATATCTCACAATAAAACTTTGCATGGTTGTCCGGAGTCACCTAGTGCAG | 8500 fluorescence intensity (a.u.) |
| AGTCCATCTTAGGCTGTGTTTTTTTTAGGGGTTAATTAAGCGGAGTCACCTAGTGCAG | 8990 fluorescence intensity (a.u.) |
| TCATGTGAGGTTAGTTGGTGGCATATTGGCAAAAGTCTGTCGGAGTCACCTAGTGCAG | 9020 fluorescence intensity (a.u.) |
| GGGGAGGTTGCTGCTGCTGCTGGGCGGGTGGGCGGAGGGGCGGAGTCACCTAGTGCAG | 28100 fluorescence intensity (a.u.) |
| TTTCTGTATCCATCCCGCTCTCTCTCTCTCTCGACGAGAGCGGAGTCACCTAGTGCAG | 8480 fluorescence intensity (a.u.) |
| GCCACCCACAAGCGCGACGTAAGCACTCTCAACTCGAATTCGGAGTCACCTAGTGCAG | 8260 fluorescence intensity (a.u.) |
| ACAGCACCCGGTCTTTGAAAGCTACCACCCGGCGCGCGCGCGGAGTCACCTAGTGCAG | 8780 fluorescence intensity (a.u.) |
| GCCAGTTATCCGTTATCCACCACGAGGCCCAATTCGAACTCGGAGTCACCTAGTGCAG | 9140 fluorescence intensity (a.u.) |
| AGTTTTGAGAGTATATAATTTTGTTTTTTTGTCTCTGTATCGGAGTCACCTAGTGCAG | 8180 fluorescence intensity (a.u.) |
| TTCATCTCCAACGTTTGATCGTTTGTCTTATTTGAATTTTCGGAGTCACCTAGTGCAG | 8900 fluorescence intensity (a.u.) |
| GCCAACTTCCGCTCGAGTTTATTTTATTTTTCTGAAAAAACGGAGTCACCTAGTGCAG | 8330 fluorescence intensity (a.u.) |
| CTTCCACTGTGTTCCTAATTCCTTCCCTGCAATTATTGGTCGGAGTCACCTAGTGCAG | 9780 fluorescence intensity (a.u.) |
| GCTATCATTTCAGCTGGTTAGCCATGTCGGGCCAGCTCGACGGAGTCACCTAGTGCAG | 8580 fluorescence intensity (a.u.) |
| AGGGTATTGCAGCTCTAATTAATTACTCAAGTGTGTGTGCCGGAGTCACCTAGTGCAG | 8240 fluorescence intensity (a.u.) |

Single entries from the results shown.
GCCAACTTCCGCTCGAGTTTATTTTATTTTTCTGAAAAAACGGAGTCACCTAGTGCAG – binding signal: 8330 fluorescence intensity (a.u.)
CGGTTCGCGCTGTTTTTCCTACGACACGCTCCAGTCAGGTCGGAGTCACCTAGTGCAG – binding signal: 8430 fluorescence intensity (a.u.)
